Data as given in PubChem BioAssay AID186 (DTP/NCI, 2004).
Shown are survivors of the treated group in tumour-free mice. Survivors were counted at the toxicity check, usually on the fifth day, unless a day is given; later deaths do not show. Schedule codes are those of the source, read here as Q, the interval in days (D) or hours (H), X, the number of doses. Some entries hold several experiments; their values stand side by side, smallest first.

System: B6D2F1 mice, nontumored toxicity test, survival
Assay: NCI In Vivo Anticancer Drug Screen. Data for tumor model Nontumored Animals (Toxicity Test) in B6D2F1 (BDF1) mice

`COc1cccc2c1C(=O)c1c(O)c3c(c(O)c1C2=O)C[C@@](O)(C(=O)CO)C[C@@H]3OC1CC(N)C(O)C(C)O1` (stereo partly specified) was tested. Which survivor count (dose: 0.28 mg/kg/injection, schedule: Q03HX008 (ip), vehicle: water) did it give?
The survivor count was 6 of 6.

What about the survivor count (dose: 0.37 mg/kg/injection, schedule: Q01DX009 (ip), vehicle: none) of the same molecule?
The survivor count was 8 of 8.

What about the survivor count (dose: 0.37 mg/kg/injection, schedule: Q03HX008 (ip), vehicle: none) of the same molecule?
The survivor count was 8 of 8.

What about the survivor count (dose: 0.47 mg/kg/injection, schedule: Q03HX008 (ip), vehicle: water) of the same molecule?
Its survivor count is 6 of 6.

What about the survivor count (dose: 0.5 mg/kg/injection, schedule: Q01DX009 (ip), vehicle: water) of the same molecule?
Its survivor count is 6 of 6.

And the survivor count (dose: 0.5 mg/kg/injection, schedule: Q03HX024 (ip), vehicle: water)?
The survivor count was 5 of 6.

What about the survivor count (dose: 0.5 mg/kg/injection, schedule: Q04DX003 (ip), vehicle: saline) of the same molecule?
Its survivor count is 5 of 5.

And the survivor count (dose: 0.65 mg/kg/injection, schedule: Q03HX008 (ip), vehicle: water)?
The survivor count was 8 of 8.

What about the survivor count (dose: 0.65 mg/kg/injection, schedule: Q03HX016 (ip), vehicle: water) of the same molecule?
The survivor count was 8 of 8.

And the survivor count (dose: 0.75 mg/kg/injection, schedule: Q01DX001 (ip), vehicle: none)?
The survivor count was 8 of 8.

And the survivor count (dose: 0.75 mg/kg/injection, schedule: Q01DX009 (ip), vehicle: none)?
The survivor count was 8 of 8.

What about the survivor count (dose: 0.75 mg/kg/injection, schedule: Q03HX008 (ip), vehicle: none) of the same molecule?
The survivor count was 5 of 8 and 8 of 8.

What about the survivor count (dose: 0.75 mg/kg/injection, schedule: Q04DX003 (ip), vehicle: none) of the same molecule?
The survivor count was 8 of 8.

What about the survivor count (dose: 0.78 mg/kg/injection, schedule: Q03HX008 (ip), vehicle: water) of the same molecule?
The survivor count was 6 of 6.

And the survivor count (dose: 1.0 mg/kg/injection, schedule: Q01DX009 (ip), vehicle: water)?
Its survivor count is 6 of 6.

And the survivor count (dose: 1.0 mg/kg/injection, schedule: Q03HX008 (ip), vehicle: water)?
Its survivor count is 6 of 6.

And the survivor count (dose: 1.0 mg/kg/injection, schedule: Q03HX024 (ip), vehicle: water)?
The survivor count was 6 of 6.

And the survivor count (dose: 1.0 mg/kg/injection, schedule: Q04DX003 (ip), vehicle: saline)?
Its survivor count is 5 of 5.

What about the survivor count (dose: 1.08 mg/kg/injection, schedule: Q03HX008 (ip), vehicle: water) of the same molecule?
The survivor count was 8 of 8.

And the survivor count (dose: 1.08 mg/kg/injection, schedule: Q03HX016 (ip), vehicle: water)?
The survivor count was 8 of 8.

What about the survivor count (dose: 1.17 mg/kg/injection, schedule: Q03HX008 (ip), vehicle: water) of the same molecule?
The survivor count was 6 of 6.

And the survivor count (dose: 1.17 mg/kg/injection, schedule: Q04DX003 (ip), vehicle: water)?
The survivor count was 6 of 6.

And the survivor count (dose: 1.5 mg/kg/injection, schedule: Q01DX001 (ip), vehicle: none)?
The survivor count was 8 of 8.

And the survivor count (dose: 1.5 mg/kg/injection, schedule: Q01DX009 (ip), vehicle: none)?
Its survivor count is 8 of 8.

What about the survivor count (dose: 1.5 mg/kg/injection, schedule: Q03HX008 (ip), vehicle: none) of the same molecule?
Its survivor count is 8 of 8.

What about the survivor count (dose: 1.5 mg/kg/injection, schedule: Q04DX003 (ip), vehicle: none) of the same molecule?
Its survivor count is 8 of 8.

What about the survivor count (dose: 1.75 mg/kg/injection, schedule: Q03HX008 (ip), vehicle: water) of the same molecule?
The survivor count was 6 of 6.

And the survivor count (dose: 1.75 mg/kg/injection, schedule: Q04DX003 (ip), vehicle: water)?
Its survivor count is 6 of 6.

And the survivor count (dose: 1.8 mg/kg/injection, schedule: Q03HX008 (ip), vehicle: water)?
Its survivor count is 8 of 8.

And the survivor count (dose: 1.8 mg/kg/injection, schedule: Q03HX016 (ip), vehicle: water)?
The survivor count was 8 of 8.

What about the survivor count (dose: 2.0 mg/kg/injection, schedule: Q01DX009 (ip), vehicle: water) of the same molecule?
Its survivor count is 6 of 6.

What about the survivor count (dose: 2.0 mg/kg/injection, schedule: Q03HX008 (ip), vehicle: water) of the same molecule?
Its survivor count is 6 of 6.

And the survivor count (dose: 2.0 mg/kg/injection, schedule: Q03HX024 (ip), vehicle: water)?
The survivor count was 6 of 6.

What about the survivor count (dose: 2.0 mg/kg/injection, schedule: Q04DX003 (ip), vehicle: saline) of the same molecule?
Its survivor count is 5 of 5.

And the survivor count (dose: 2.4 mg/kg/injection, schedule: Q04DX003 (ip), vehicle: saline)?
The survivor count was 4 of 4.

And the survivor count (dose: 2.5 mg/kg/injection, schedule: Q01DX001 (ip), vehicle: water)?
The survivor count was 8 of 8.

What about the survivor count (dose: 2.5 mg/kg/injection, schedule: Q04DX003 (ip), vehicle: water) of the same molecule?
The survivor count was 6 of 6.

What about the survivor count (dose: 2.6 mg/kg/injection, schedule: Q04DX003 (ip), vehicle: water) of the same molecule?
Its survivor count is 6 of 6.

And the survivor count (dose: 3.0 mg/kg/injection, schedule: Q01DX001 (ip), vehicle: none)?
The survivor count was 8 of 8.

What about the survivor count (dose: 3.0 mg/kg/injection, schedule: Q01DX009 (ip), vehicle: none) of the same molecule?
The survivor count was 8 of 8.

What about the survivor count (dose: 3.0 mg/kg/injection, schedule: Q03HX008 (ip), vehicle: none) of the same molecule?
Its survivor count is 7 of 8 and 8 of 8.

What about the survivor count (dose: 3.0 mg/kg/injection, schedule: Q03HX008 (ip), vehicle: water) of the same molecule?
Its survivor count is 8 of 8.

What about the survivor count (dose: 3.0 mg/kg/injection, schedule: Q03HX016 (ip), vehicle: water) of the same molecule?
Its survivor count is 4 of 8, 5 of 8, 7 of 8.

What about the survivor count (dose: 3.0 mg/kg/injection, schedule: Q04DX003 (ip), vehicle: none) of the same molecule?
Its survivor count is 8 of 8.

What about the survivor count (dose: 3.9 mg/kg/injection, schedule: Q01DX001 (ip), vehicle: water) of the same molecule?
The survivor count was 6 of 6.

And the survivor count (dose: 3.9 mg/kg/injection, schedule: Q04DX003 (ip), vehicle: water)?
Its survivor count is 6 of 6.

And the survivor count (dose: 4.0 mg/kg/injection, schedule: Q01DX001 (ip), vehicle: saline)?
Its survivor count is 10 of 10 and 4 of 4.

What about the survivor count (dose: 4.0 mg/kg/injection, schedule: Q03HX008 (ip), vehicle: water) of the same molecule?
Its survivor count is 4 of 6.

And the survivor count (dose: 4.0 mg/kg/injection, schedule: Q04DX003 (ip), vehicle: saline)?
The survivor count was 4 of 4 and 5 of 5.

And the survivor count (dose: 5.0 mg/kg/injection, schedule: Q01DX001 (ip), vehicle: water)?
The survivor count was 6 of 6 and 8 of 8.

What about the survivor count (dose: 5.0 mg/kg/injection, schedule: Q04DX003 (ip), vehicle: water) of the same molecule?
Its survivor count is 6 of 6.

And the survivor count (dose: 5.0 mg/kg/injection, schedule: Q08DX002 (ip), vehicle: water)?
The survivor count was 6 of 6.

What about the survivor count (dose: 5.9 mg/kg/injection, schedule: Q01DX001 (ip), vehicle: water) of the same molecule?
The survivor count was 3 of 3.

And the survivor count (dose: 5.9 mg/kg/injection, schedule: Q04DX003 (ip), vehicle: water)?
Its survivor count is 6 of 6.

What about the survivor count (dose: 6.0 mg/kg/injection, schedule: Q01DX001 (ip), vehicle: none) of the same molecule?
The survivor count was 8 of 8.

And the survivor count (dose: 6.0 mg/kg/injection, schedule: Q04DX003 (ip), vehicle: none)?
Its survivor count is 8 of 8.

What about the survivor count (dose: 6.67 mg/kg/injection, schedule: Q04DX003 (ip), vehicle: saline) of the same molecule?
Its survivor count is 2 of 3.

What about the survivor count (dose: 6.7 mg/kg/injection, schedule: Q01DX001 (ip), vehicle: saline) of the same molecule?
The survivor count was 10 of 10.

And the survivor count (dose: 8.0 mg/kg/injection, schedule: Q01DX001 (ip), vehicle: saline)?
Its survivor count is 10 of 10 and 4 of 4.

And the survivor count (dose: 8.0 mg/kg/injection, schedule: Q04DX003 (ip), vehicle: saline)?
Its survivor count is 5 of 5.

And the survivor count (dose: 8.9 mg/kg/injection, schedule: Q01DX001 (ip), vehicle: water)?
The survivor count was 6 of 6.

And the survivor count (dose: 8.9 mg/kg/injection, schedule: Q04DX003 (ip), vehicle: water)?
The survivor count was 6 of 6.

What about the survivor count (dose: 10.0 mg/kg/injection, schedule: Q01DX001 (ip), vehicle: saline) of the same molecule?
The survivor count was 10 of 10.

What about the survivor count (dose: 10.0 mg/kg/injection, schedule: Q01DX001 (ip), vehicle: water) of the same molecule?
Its survivor count is 6 of 6 and 8 of 8.

And the survivor count (dose: 10.0 mg/kg/injection, schedule: Q04DX003 (ip), vehicle: water)?
The survivor count was 6 of 6.

And the survivor count (dose: 10.0 mg/kg/injection, schedule: Q08DX002 (ip), vehicle: water)?
Its survivor count is 6 of 6.

What about the survivor count (dose: 12.0 mg/kg/injection, schedule: Q01DX001 (ip), vehicle: none) of the same molecule?
The survivor count was 8 of 8.

And the survivor count (dose: 12.0 mg/kg/injection, schedule: Q01DX001 (ip), vehicle: saline)?
The survivor count was 10 of 10 and 4 of 4.

And the survivor count (dose: 13.3 mg/kg/injection, schedule: Q01DX001 (ip), vehicle: water)?
The survivor count was 6 of 6.

What about the survivor count (dose: 15.0 mg/kg/injection, schedule: Q01DX001 (ip), vehicle: saline) of the same molecule?
The survivor count was 8 of 10 and 10 of 10.

What about the survivor count (dose: 16.0 mg/kg/injection, schedule: Q01DX001 (ip), vehicle: saline) of the same molecule?
The survivor count was 10 of 10 and 4 of 4.

And the survivor count (dose: 20.0 mg/kg/injection, schedule: Q01DX001 (ip), vehicle: water)?
Its survivor count is 4 of 6, 6 of 6, 8 of 8.

What about the survivor count (dose: 20.0 mg/kg/injection, schedule: Q08DX002 (ip), vehicle: water) of the same molecule?
Its survivor count is 6 of 6.

And the survivor count (dose: 32.0 mg/kg/injection, schedule: Q01DX001 (ip), vehicle: saline)?
Its survivor count is 10 of 10.

And the survivor count (dose: 64.0 mg/kg/injection, schedule: Q01DX001 (ip), vehicle: saline)?
Its survivor count is 10 of 10.

And the survivor count (dose: 128.0 mg/kg/injection, schedule: Q01DX001 (ip), vehicle: saline)?
Its survivor count is 10 of 10.
